Assay in all cases: NP40-soluble protein abundance relative to vehicle (solubility fold change) (ratio); higher = more soluble protein in presence of ATP
The target in assay [1] is T1, UniProt Q15398-3|Q15398.
T1 sequence (whole entry): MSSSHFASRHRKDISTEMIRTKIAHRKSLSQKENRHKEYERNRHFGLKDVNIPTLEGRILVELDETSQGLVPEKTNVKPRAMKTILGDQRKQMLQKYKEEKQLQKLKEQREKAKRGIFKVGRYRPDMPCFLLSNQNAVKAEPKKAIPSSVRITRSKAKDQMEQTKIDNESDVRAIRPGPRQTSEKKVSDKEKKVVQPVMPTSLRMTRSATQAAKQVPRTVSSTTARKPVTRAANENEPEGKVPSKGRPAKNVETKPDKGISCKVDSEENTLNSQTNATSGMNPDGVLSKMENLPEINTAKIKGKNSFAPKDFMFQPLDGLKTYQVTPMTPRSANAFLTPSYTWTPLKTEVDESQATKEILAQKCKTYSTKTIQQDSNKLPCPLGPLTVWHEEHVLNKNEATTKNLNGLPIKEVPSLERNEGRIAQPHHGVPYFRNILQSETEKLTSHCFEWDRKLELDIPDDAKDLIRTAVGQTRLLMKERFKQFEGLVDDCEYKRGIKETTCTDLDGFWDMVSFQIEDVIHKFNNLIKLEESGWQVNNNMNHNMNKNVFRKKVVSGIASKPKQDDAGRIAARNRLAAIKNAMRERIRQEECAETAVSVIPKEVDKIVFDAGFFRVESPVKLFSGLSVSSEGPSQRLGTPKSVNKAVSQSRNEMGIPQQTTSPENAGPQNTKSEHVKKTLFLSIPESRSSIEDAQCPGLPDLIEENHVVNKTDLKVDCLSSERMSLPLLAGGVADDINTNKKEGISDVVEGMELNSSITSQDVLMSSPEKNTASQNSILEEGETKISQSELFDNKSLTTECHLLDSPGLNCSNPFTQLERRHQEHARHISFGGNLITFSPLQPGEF
Put shortly: (§1)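 Data come from three independent experiments in which Dounce-homogenised Jurkat crude lysate was treated at eight concentrations from 0.1 to 10 mM. Treatment ran 10 min at room temperature and then 3 min at 37 °C, after which 0.8% NP40 and benzonase were added for 60 min at 4 °C before ultracentrifugation. The supernatant underwent TMT labelling and LC-MS/MS, and vsn-normalised intensities were expressed as fold change against the detergent-processed vehicle in each replicate.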

Assay [2] addresses T2, UniProt Q15813 and related entries.
T2 sequence (whole entry): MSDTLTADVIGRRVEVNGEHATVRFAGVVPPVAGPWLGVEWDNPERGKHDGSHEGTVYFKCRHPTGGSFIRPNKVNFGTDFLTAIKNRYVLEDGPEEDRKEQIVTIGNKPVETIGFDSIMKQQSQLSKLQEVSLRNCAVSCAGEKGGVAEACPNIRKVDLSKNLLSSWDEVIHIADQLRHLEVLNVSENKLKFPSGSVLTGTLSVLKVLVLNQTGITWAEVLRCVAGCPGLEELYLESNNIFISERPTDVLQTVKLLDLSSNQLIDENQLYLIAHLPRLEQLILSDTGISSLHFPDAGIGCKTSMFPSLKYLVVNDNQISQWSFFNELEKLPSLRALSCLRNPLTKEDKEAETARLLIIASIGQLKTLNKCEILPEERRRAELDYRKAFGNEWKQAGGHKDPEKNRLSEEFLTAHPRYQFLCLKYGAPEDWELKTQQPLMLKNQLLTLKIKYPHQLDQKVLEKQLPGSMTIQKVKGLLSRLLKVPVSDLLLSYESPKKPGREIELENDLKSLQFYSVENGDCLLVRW
In a few lines:
as §1

Assay [3] addresses T3, UniProt Q16514-2.
T3 sequence (whole entry): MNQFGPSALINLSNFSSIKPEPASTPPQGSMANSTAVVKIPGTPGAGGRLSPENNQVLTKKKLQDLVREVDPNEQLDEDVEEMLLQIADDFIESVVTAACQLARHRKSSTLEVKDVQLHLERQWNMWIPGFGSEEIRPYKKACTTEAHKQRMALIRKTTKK
Put shortly:
as §1

The target in assay [4] is T4, ZYX (UniProt Q15942).
T4 sequence (whole entry): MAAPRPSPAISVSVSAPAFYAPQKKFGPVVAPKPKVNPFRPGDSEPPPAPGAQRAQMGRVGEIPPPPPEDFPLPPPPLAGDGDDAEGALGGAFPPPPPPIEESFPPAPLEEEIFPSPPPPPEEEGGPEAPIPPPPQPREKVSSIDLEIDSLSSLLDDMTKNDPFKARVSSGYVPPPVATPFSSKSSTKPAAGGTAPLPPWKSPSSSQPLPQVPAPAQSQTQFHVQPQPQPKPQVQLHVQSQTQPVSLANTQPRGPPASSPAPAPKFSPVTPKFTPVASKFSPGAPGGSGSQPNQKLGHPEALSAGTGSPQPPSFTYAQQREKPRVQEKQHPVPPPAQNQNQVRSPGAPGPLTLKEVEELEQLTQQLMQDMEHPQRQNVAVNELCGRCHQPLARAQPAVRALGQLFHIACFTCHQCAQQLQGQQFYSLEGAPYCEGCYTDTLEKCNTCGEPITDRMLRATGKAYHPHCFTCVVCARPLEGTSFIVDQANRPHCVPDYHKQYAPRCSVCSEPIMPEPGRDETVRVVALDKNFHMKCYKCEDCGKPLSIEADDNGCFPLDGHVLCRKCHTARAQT
In a few lines: as §1

This passage reports NP40-soluble protein abundance results from the supplement of paper PMC6411743.

± gives the standard deviation of the averaged measurements. Only a part is listed here, and it is no random draw.

For `Nc1ncnc2c1ncn2[C@@H]1O[C@H](COP(=O)(O)OP(=O)(O)OP(=O)(O)O)[C@@H](O)[C@H]1O` [adenosine triphosphate], the NP40-soluble protein abundance is 0.976 ± 0.029 in assay [1] (concentration: 1mM); 0.955 ± 0.027 in assay [1] (concentration: 2mM); 0.946 ± 0.017 in assay [1] (concentration: 4mM); 0.953 ± 0.023 in assay [1] (concentration: 6mM); 0.897 ± 0.025 in assay [1] (concentration: 8mM); 0.891 ± 0.025 in assay [1] (concentration: 10mM). For the same compound, the NP40-soluble protein abundance was 0.976 ± 0.011 in assay [2] (concentration: 1mM); 0.976 ± 0.013 in assay [2] (concentration: 2mM); 0.949 ± 0.013 in assay [2] (concentration: 4mM); 0.968 ± 0.051 in assay [2] (concentration: 6mM); 0.965 ± 0.025 in assay [2] (concentration: 8mM); 0.947 ± 0.023 in assay [2] (concentration: 10mM). Further, the NP40-soluble protein abundance in assay [3] (concentration: 1mM) is 1.04 ± 0.13; in assay [3] (concentration: 2mM) it was 1.05 ± 0.1; in assay [3] (concentration: 4mM) it was 1.02 ± 0.082; in assay [3] (concentration: 6mM), 1.13 ± 0.14; in assay [3] (concentration: 8mM) it was 1.05 ± 0.098; in assay [3] (concentration: 10mM), 1.13 ± 0.12. In addition, the NP40-soluble protein abundance in assay [4] (concentration: 1mM) was determined as 0.951 ± 0.045; in assay [4] (concentration: 2mM), 0.955 ± 0.019; in assay [4] (concentration: 4mM), 0.925 ± 0.019; in assay [4] (concentration: 6mM) it was 0.974 ± 0.011; in assay [4] (concentration: 8mM) it was 0.898 ± 0.032; in assay [4] (concentration: 10mM), 0.939 ± 0.019.
